Reference: article PMC12040169 (PLOS Biology, 2025)

Assay: in vitro
Settings: human, hela cells, % viability

Q: For `O=C(O)COCCN1CCN(C(c2ccccc2)c2ccc(Cl)cc2)CC1` (stereo not shown) [CBK201109], which viability at 28.5 h, 10 µM is on record?
A: 87.4%
